# Over roughly 33,000 sequences, “E-score (-0.5 to 0.5)” has its median near -0.016; the highest 2% begin near 0.3. Some of the results follow.
# Target: T1, Yer184c (UniProt P39961)
# T1 sequence: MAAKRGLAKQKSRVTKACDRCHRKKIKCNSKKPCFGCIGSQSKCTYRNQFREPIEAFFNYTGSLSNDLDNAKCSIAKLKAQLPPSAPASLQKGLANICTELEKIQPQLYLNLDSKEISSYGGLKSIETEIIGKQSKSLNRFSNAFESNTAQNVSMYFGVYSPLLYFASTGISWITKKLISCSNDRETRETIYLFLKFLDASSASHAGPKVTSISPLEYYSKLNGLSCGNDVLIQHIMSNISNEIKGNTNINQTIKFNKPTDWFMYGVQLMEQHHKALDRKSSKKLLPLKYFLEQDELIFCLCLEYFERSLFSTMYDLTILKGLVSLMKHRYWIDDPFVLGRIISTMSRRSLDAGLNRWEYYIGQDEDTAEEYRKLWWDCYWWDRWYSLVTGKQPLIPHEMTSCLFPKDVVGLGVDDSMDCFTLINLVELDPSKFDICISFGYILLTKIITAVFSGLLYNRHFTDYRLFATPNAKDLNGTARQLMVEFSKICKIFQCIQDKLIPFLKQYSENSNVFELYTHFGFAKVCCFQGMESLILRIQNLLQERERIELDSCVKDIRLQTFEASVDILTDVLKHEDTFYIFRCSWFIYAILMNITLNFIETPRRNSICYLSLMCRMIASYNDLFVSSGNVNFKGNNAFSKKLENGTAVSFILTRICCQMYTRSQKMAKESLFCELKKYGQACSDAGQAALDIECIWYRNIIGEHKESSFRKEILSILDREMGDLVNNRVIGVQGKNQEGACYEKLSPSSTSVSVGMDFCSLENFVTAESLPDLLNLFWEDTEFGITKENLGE
# Assay: PBM E-score (8-mer binding enrichment) (E-score (-0.5 to 0.5)); higher = stronger / more preferred TF binding
# Conditions: protein concentration: 100 nM; construct: GST-full length
# Summary of the method: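 Detection of bound protein used fluorescent anti-GST, with scans normalised by masliner. The proteins were GST-tagged yeast transcription factors applied at about 100-200 nM to universal all-10-mer Agilent arrays made double-stranded by primer extension. Each ungapped eight-base word, pooled with its reverse complement, was scored with an E-score from the Universal PBM Analysis Suite.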
row,Sequence,PBM E-score
1,ACCATTTC,-0.0512
2,AACCCATC,-0.186
3,ATGGACAT,0.0596
4,CCTCTTTA,-0.159
5,GTAGTGTA,0.0469
6,GTTATTCA,0.185
7,ATGCACTA,-0.0462
8,GCCCTCCC,-0.238
9,AGCGATAT,0.054
10,CAAAATAC,0.142
11,CCAATTGA,-0.0725
12,ATCACCTG,-0.283
13,GACCCAAA,-0.0393
14,CGCCACCC,-0.266
15,GGCAAGAC,-0.0949
16,TAAGTGAA,0.0657
17,CAAAGAAC,0.151
18,CCATCAGA,-0.122
19,ACCTCAAC,-0.027
20,GTATAGAA,0.0035
21,AGGATCAC,-0.179
22,CCCTCAAG,-0.297
23,CTCGGTGA,0.171
24,CTGACGTA,-0.0533
25,CTAGCGTC,-0.155

row,Sequence,PBM E-score
1,ACTGTATA,0.0749
2,AGTGATCG,-0.12
3,ATGAACGG,0.0226
4,CGGTTCAG,0.105
5,CAGAAATG,0.0134
6,GGGTGAGA,-0.217
7,CGACTCTA,-0.149
8,CCTACAAG,-0.0682
9,GAGAGATA,0.0351
10,ATGATAGA,0.0813
11,CACCACAG,-0.0222
12,CCCTGACC,-0.0998
13,ACCAAACA,0.175
14,ACAGCCCC,-0.262
15,GCGCAGAC,0.0537
16,CTCCCGAC,0.00724
17,AAGGCTTC,-0.0592
18,ACGCGATG,0.0181
19,CCTTTCAA,0.00713
20,CCAGAAGA,-0.0993
21,GGACAGTA,0.203
22,CACCTGAA,0.0307
23,CTGCTTTA,0.115
24,TCGGTTCA,0.148
25,CACCTATC,-0.0589

row,Sequence,PBM E-score
1,CTACCGGA,0.129
2,CGGACTTC,0.125
3,TAAAATAA,0.231
4,GCTCGACC,-0.0716
5,ACAGTAAT,0.056
6,AACGAGCG,-0.0126
7,AAGTCGCG,0.0796
8,ATTCTGCG,-0.00744
9,AATCTGGC,-0.0672
10,GATGCTCA,-0.0696
11,ACGGCGAA,0.268
12,CATGAAAC,-0.0106
13,ATCTGTAC,0.0648
14,TACGTCCA,-0.164
15,CCCTGGTA,-0.265
16,GTCGACGA,0.032
17,CAACCTAA,-0.0431
18,GAAAGGCA,0.212
19,GGAGTGGA,-0.142
20,CTGGTGCC,-0.198
21,ATACCATA,0.0874
22,TGGACGAA,-0.0388
23,ACGCCCGT,-0.0275
24,CGTTGAGC,0.0226
25,AAATAACT,0.157

row,Sequence,PBM E-score
1,CGACACCG,0.0884
2,AGCTATGG,-0.148
3,CATTAAGG,0.0365
4,ACCCCCAT,-0.326
5,ATATGTCC,0.15
6,CTTCCTAA,0.0375
7,CCGCACTA,0.157
8,CGTGGGAG,-0.105
9,CCGAACCC,0.0527
10,TAATCCAA,0.0954
11,CCCCAAAC,-0.273
12,ACTCGAAG,-0.0946
13,CCCTCTCA,-0.405
14,CCCGAGTA,0.0836
15,ACTCTGTC,-0.139
16,GCCACGAA,-0.16
17,ATACTTTC,0.171
18,CTTGATAA,0.143
19,GTCAGCAC,-0.0139
20,CGCTCGCA,0.233
21,AAAACAGA,0.101
22,CTGACGGC,0.00591
23,AATTACGC,-0.0695
24,AGGCAAAA,-0.0228
25,ATCACAGA,0.0351

# Reprinted at random: 7 entries already listed, in no set order.
row,Sequence,PBM E-score
24,CTGACGTA,-0.0533
22,CTGACGGC,0.00591
22,TGGACGAA,-0.0388
23,CTGCTTTA,0.115
5,CAGAAATG,0.0134
1,CTACCGGA,0.129
12,ACTCGAAG,-0.0946

# Following part.

row,Sequence,PBM E-score
1,AGCCAGAT,-0.0568
2,GGAACTAA,0.136
3,ACCGAGAG,0.147
4,AACGGACC,0.185
5,CCGAAGAG,0.243
6,GGGCGTGA,-0.0872
7,GCCGCTTA,0.155
8,TATACAAA,0.257
9,GTCGACAA,0.0101
10,CCAATGAG,-0.208
11,AGCTGTCG,-0.0677
12,ACAAGTTC,-0.0315
13,AGAAGGAA,-0.139
14,AGCGTTAA,-0.117
15,ACGTGTTA,0.0294
16,AGATAGCA,-0.0331
17,GACTTTAC,0.0813
18,CTAGGCGA,-0.151
19,ATTGTTCA,0.112
20,ACGGGAAC,0.152
21,CGATAGTA,-0.0758
22,CTGTTTGC,-0.0666
23,CTACATGA,-0.0436
24,CGATTGAA,0.0258
25,TAGCGCGA,0.0853

row,Sequence,PBM E-score
1,AGGCCACG,-0.158
2,ATCAGAGA,-0.113
3,AATCACTC,-0.131
4,CATTCTAA,0.204
5,ACGCACCA,0.00654
6,TACTATCA,0.162
7,ACCCGCGT,-0.0424
8,CATATACC,-0.104
9,GTTTCGCA,-0.0906
10,GGGGCAGA,-0.123
11,GAAGTGTC,0.135
12,ACTGAGTG,0.0663
13,AGGTTTCA,0.03
14,ACTAAGCA,-0.0402
15,CCTGCTGC,-0.143
16,AGTAGGAC,-0.121
17,TGCCACCA,-0.432
18,ACGTTAAG,-0.135
19,ACTGATAG,-0.00572
20,ACCTAAGC,-0.064
21,CGGATACC,0.206
22,AGATCAGA,-0.104
23,CGTTCTCC,-0.104
24,GGTGCTCA,-0.104
25,AATCTAGA,-0.127

row,Sequence,PBM E-score
1,CGGACCGC,0.104
2,AGAAGCAC,-0.123
3,ATCTAACG,0.111
4,AGCCGACT,-0.00308
5,TCTGGGCA,0.0692
6,ACAAACAG,0.0772
7,GATAAGAA,0.262
8,TGAAGACA,0.0218
9,CGCGCCGA,0.256
10,CCCGGCCA,0.209
11,AGCCGTAC,0.0662
12,CGAGCATC,-0.0678
13,AGAACGAA,0.0785
14,ACGTCCAC,-0.205
15,AGCATAAA,0.0593
16,GAACCAAA,-0.0175
17,AGCAGTCG,-0.112
18,AAAGGTAT,-0.0498
19,ACCGAAAT,0.218
20,AGCCACCC,-0.224
21,CAACTAAG,0.0457
22,GCTGCGCC,-0.221

# From the supplement of paper PMC3334620
